Data source: PubChem BioAssay AID652248 (Drosophila RNAi Screening Center, 2013)

Purpose: 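Genes that govern switching among distinct shape types in fly blood cells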 (primary screen)
System: cultured Drosophila hemocytes
Reagents: long dsRNA against Drosophila genes
Measurement: 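Automated microscopy of stained actin, tubulin and nuclei; single-cell shape measures assigned to five reference shape types, giving a score per dsRNA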
Direction: elongated score: higher = more elongated bipolar cells
Active means: 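Hits show a significant increase of elongated cells; higher rank given where elongated cells rose as other shape types fell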
The whole screen tested 863 reagents; shown is a random part of them. 32 of all reagents (3.7%) were called active. 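Calls also used reproducibility and a similarity ranking whose scores are not deposited; many active genes show only modest elongated scores.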 Unmarked entries are inactive. Names joined by + are all predicted targets of the reagent. Not all columns of the deposit are shown. The record does not give: the amount of reagent, the time to read-out.

gene	dsRNA	elongated score, rep 1	elongated score, rep 2
slpr	DRSC18225	0.2	
slpr	DRSC23321	-0.53	
Eip63E	DRSC08658	0.54	
polo	DRSC11384	5.02 (active)	2.23
polo	DRSC22359	4.74 (active)	
CG9222	DRSC03158	-0.21	
Phk-3	DRSC04547	-0.53	
CG9784	DRSC20210	0.65	
CG9784	DRSC28204	0.47	
sktl	DRSC04715	2.83	
INPP5E	DRSC09723	-0.53	
PTPMT1	DRSC14235	-0.45	
CG4629	DRSC00659	0.31	
CG4629	DRSC27952	0.24	
Madm	DRSC12129	-0.37	
Madm	DRSC25999	-0.1	
twf	DRSC15466	-0.12	
Btk	DRSC02008	-0.39	
Btk	DRSC02666	0.13	
Btk	DRSC22427	1.02	
Pez	DRSC03397	0.22	
Pez	DRSC27921	1.26	
Ptp99A	DRSC13939	2.68	
Ptp99A	DRSC14320	0.81	
Ptp99A	DRSC16803	-0.36	
Ptp99A	DRSC22125	2.57	
Ptp99A	DRSC22477	-0.17	
Pp1alpha-96A	DRSC16795	-0.53	
Pp1alpha-96A	DRSC23320	0.68	
Pp1alpha-96A	DRSC25667	-0.53	
wun	DRSC07719	0.74	
Asator	DRSC17136	-0.26	
spag	DRSC04717	-0.53	
Nrk	DRSC07480	-0.53	
Pi3K21B	DRSC00771	-0.18	
flw	DRSC17992	-0.53	
flw	DRSC18774	-0.53	
flw	DRSC25161	-0.53	
PKD	DRSC16200	-0.53	
AMPKalpha	DRSC18714	0.66	0.31
AMPKalpha	DRSC28055	-0.53	
yata	DRSC15408	-0.53	
Ptp10D	DRSC20272	-0.53	
hpRNA:CR18854 + IP3K1	DRSC02218	1.1	0.53
hpRNA:CR18854 + IP3K1	DRSC23313	0.63	2.1
asp	DRSC16903	-0.26	
Ptp61F	DRSC08683	-0.53	
Ptp61F	DRSC28719	-0.38	
CG8565	DRSC20112	-0.21	
Alp1	DRSC11781	-0.38	
Mkp + CG34140	DRSC08585	0.13	
Mkp + CG34140	DRSC26000	2.5	
Akt	DRSC14108	0.73	
Ppm1	DRSC08260	-0.53	
Ppm1	DRSC27792	3.04	
Alp6	DRSC06710	-0.53	
CycK	DRSC03714	0.41	
Ptp4E	DRSC18701	6.53	-0.53
CG2201	DRSC03721	0.82	
Uck	DRSC16028	-0.39	
puc	DRSC17034	-0.53	
puc	DRSC26308	0.36	
Ak3	DRSC16075	0	
Ak3	DRSC27968	-0.25	
S6k	DRSC11276	0.53	
Alp4	DRSC14116	-0.25	
fu	DRSC20333	1.18	
fu	DRSC27965	0.79	
GckIII	DRSC15729	2.75	
Tssk	DRSC14784	-0.53	
Tssk	DRSC26679	0.74	
CycJ	DRSC08653	0.37	
CycJ	DRSC29329	3.42	
nmdyn-D7	DRSC17016	-0.53	
CG9961	DRSC00738	-0.24	
CG9961	DRSC23343	0.05	
CG9961	DRSC25842	-0.16	
CG42366	DRSC02760	-0.53	
CG42366	DRSC23297	-0.53	
Pak3	DRSC15017	-0.53	
Pak3	DRSC26832	-0.53	
Gprk2	DRSC16682	-0.53	-0.16
Gprk2	DRSC23336	0.4	
nonC	DRSC18366	-0.53	3.69
nonC	DRSC18367	0.25	
Ocrl	DRSC18576	-0.53	
